The other results are listed elsewhere or left out.
Experiments:
Experiment in all cases: log2 fold change, soluble protein after heating vs DMSO (PISA); higher = thermal stabilisation; K562 cells, 10 uM, 30 min; active = over 0.2 and 3.5 SD of the protein, either way, in both replicates (recomputed)
erlotinib = compound: C#Cc1cccc(Nc2ncnc3cc(OCCOC)c(OCCOC)cc23)c1 [erlotinib]
Method in brief: (§1)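 K562 cells at 2×10^6 cells/mL were given 10 μM compound for 30 min. Aliquots then went through 3 min of heating across 48°C-58°C, were pooled, and were extracted in PBS with 0.5% NP-40 at 4°C, and the supernatant after 21,000xg for 90 min was quantified by TMTpro 16plex LC-MS/MS with channel sums equalised. Thermal stability relative to control samples, from duplicates, is given as log2 fold change.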

Protein sequences, listed by entry. Tags and fused reporters are not part of them. Lines headed by an entry give the natural chain unless they say otherwise; changes in a name come on top.
UniProt Q8IUG5: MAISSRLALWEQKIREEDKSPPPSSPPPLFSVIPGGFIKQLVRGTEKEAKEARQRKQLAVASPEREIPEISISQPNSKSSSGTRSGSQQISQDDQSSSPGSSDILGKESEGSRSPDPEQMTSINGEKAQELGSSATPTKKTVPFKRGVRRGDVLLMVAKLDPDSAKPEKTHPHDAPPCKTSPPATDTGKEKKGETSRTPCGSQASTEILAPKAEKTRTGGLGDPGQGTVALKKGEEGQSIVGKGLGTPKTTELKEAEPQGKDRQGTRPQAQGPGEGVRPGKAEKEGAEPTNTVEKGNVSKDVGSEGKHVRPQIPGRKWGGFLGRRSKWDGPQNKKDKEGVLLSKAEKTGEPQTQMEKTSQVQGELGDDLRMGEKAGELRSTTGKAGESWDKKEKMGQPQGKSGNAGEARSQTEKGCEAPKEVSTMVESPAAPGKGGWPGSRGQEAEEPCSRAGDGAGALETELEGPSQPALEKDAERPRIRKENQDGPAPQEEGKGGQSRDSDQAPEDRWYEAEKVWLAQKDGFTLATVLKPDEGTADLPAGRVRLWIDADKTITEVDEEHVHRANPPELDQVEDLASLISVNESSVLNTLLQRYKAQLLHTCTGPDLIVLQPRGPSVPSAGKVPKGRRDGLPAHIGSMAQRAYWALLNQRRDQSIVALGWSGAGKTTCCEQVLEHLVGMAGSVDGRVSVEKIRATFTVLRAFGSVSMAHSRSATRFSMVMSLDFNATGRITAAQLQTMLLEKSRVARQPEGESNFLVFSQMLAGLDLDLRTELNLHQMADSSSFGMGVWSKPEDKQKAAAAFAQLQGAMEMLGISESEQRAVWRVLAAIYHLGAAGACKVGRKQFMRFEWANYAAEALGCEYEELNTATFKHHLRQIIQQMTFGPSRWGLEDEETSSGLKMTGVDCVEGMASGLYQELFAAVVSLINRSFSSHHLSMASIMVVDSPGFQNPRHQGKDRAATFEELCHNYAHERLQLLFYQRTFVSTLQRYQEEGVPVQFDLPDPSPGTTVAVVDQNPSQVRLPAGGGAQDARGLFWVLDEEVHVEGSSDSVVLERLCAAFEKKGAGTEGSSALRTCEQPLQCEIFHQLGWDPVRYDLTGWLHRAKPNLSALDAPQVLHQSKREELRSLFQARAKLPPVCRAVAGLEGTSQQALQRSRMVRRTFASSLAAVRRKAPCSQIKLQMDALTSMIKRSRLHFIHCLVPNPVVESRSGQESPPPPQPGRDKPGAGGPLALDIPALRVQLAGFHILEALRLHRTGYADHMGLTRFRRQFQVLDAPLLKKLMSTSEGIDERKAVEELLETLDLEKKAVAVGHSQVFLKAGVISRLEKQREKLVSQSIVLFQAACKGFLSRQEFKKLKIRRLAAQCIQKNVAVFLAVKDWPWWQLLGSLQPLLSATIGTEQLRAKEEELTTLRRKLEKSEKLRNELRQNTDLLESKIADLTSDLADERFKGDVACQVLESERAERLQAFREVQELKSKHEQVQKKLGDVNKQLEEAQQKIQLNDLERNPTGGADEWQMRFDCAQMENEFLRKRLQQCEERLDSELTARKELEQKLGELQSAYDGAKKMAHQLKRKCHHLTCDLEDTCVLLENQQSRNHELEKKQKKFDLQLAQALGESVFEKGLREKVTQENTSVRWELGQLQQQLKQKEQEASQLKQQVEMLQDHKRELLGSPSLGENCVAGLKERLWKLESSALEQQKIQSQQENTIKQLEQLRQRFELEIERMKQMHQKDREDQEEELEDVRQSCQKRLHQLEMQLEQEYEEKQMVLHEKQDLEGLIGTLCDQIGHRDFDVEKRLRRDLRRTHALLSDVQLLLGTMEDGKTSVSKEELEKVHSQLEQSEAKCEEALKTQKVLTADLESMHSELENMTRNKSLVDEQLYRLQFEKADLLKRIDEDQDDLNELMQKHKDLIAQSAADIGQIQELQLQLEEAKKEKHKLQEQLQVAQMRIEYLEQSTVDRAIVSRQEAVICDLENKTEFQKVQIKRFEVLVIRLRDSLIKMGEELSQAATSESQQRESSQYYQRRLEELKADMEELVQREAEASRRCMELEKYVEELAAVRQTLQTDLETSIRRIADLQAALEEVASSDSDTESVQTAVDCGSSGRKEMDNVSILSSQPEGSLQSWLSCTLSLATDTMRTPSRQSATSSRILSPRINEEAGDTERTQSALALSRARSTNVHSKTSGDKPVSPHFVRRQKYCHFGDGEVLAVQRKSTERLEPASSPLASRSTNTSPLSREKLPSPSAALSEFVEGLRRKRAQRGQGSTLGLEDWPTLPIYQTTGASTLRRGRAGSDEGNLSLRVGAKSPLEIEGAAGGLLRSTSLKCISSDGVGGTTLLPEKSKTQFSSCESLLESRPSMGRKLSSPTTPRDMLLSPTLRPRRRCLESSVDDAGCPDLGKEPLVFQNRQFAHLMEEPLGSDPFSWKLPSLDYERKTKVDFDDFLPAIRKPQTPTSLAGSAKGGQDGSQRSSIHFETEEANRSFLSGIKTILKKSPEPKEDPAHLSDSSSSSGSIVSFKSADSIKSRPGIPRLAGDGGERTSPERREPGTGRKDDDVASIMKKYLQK
UniProt Q03426, whole entry, looked up: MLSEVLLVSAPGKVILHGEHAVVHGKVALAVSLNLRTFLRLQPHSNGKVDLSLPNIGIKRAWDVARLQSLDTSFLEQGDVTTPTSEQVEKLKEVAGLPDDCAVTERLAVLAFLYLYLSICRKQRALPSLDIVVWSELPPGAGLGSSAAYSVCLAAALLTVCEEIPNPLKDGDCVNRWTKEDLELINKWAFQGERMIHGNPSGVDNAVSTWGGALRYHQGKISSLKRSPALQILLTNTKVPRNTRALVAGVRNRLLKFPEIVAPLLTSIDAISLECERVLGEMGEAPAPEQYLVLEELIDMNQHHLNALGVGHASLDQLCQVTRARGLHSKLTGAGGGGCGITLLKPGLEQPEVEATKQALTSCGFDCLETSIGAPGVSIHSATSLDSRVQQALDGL
UniProt P58546, whole entry, looked up: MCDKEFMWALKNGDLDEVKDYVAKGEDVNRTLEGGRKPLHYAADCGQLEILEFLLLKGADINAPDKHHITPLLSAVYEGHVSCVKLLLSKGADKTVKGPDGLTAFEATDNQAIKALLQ
UniProt Q13496: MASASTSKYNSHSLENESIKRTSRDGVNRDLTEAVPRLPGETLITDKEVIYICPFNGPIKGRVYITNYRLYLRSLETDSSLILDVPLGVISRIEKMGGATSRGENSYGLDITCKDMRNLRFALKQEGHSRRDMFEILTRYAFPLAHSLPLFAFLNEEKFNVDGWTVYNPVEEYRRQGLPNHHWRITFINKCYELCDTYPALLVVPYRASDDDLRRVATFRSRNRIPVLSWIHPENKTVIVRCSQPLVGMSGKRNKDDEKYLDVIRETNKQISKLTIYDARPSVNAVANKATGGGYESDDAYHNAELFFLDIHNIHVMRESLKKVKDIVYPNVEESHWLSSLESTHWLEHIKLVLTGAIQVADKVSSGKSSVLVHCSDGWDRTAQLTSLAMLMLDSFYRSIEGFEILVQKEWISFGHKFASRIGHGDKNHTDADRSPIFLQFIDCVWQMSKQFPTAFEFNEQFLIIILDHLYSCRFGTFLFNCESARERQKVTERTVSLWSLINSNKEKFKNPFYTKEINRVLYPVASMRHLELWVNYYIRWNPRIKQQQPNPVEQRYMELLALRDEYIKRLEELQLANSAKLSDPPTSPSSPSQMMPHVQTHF
UniProt Q15390: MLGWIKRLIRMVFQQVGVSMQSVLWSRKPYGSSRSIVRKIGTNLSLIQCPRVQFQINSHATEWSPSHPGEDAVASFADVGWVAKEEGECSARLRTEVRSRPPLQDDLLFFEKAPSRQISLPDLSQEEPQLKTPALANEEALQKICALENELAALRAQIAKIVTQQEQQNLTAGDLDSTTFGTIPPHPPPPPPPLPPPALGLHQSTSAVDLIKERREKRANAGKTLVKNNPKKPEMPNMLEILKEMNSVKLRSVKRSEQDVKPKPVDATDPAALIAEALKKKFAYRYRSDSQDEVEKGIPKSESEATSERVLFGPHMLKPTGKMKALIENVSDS
UniProt Q9NZJ7, whole entry, looked up: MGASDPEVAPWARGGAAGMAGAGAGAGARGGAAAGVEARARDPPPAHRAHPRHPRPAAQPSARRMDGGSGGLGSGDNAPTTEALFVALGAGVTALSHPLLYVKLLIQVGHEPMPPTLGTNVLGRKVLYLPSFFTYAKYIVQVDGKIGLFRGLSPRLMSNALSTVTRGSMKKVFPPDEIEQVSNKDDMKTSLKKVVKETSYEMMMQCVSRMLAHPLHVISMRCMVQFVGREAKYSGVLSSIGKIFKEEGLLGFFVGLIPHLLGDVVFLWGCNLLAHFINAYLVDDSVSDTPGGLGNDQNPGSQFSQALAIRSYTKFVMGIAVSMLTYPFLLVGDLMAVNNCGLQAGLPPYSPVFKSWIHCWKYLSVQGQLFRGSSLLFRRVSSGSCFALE
UniProt Q15800: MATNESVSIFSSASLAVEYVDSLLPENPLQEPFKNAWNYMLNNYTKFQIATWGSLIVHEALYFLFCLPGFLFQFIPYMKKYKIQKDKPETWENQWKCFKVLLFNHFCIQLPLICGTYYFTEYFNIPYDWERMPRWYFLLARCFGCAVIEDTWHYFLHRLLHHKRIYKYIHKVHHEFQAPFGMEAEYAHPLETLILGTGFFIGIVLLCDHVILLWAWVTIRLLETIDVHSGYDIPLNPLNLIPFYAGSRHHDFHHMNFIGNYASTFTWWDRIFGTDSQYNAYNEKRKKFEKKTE
UniProt O43347: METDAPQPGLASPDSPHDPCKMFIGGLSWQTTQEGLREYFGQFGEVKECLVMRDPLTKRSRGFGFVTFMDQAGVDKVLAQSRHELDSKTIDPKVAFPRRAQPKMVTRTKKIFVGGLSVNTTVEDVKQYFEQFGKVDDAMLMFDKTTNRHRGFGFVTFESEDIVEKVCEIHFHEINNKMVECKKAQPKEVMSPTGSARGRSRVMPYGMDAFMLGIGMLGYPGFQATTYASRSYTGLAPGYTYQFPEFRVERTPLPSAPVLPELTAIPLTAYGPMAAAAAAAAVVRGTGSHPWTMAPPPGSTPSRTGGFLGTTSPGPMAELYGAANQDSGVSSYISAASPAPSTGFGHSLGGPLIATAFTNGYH
UniProt Q9BQG0: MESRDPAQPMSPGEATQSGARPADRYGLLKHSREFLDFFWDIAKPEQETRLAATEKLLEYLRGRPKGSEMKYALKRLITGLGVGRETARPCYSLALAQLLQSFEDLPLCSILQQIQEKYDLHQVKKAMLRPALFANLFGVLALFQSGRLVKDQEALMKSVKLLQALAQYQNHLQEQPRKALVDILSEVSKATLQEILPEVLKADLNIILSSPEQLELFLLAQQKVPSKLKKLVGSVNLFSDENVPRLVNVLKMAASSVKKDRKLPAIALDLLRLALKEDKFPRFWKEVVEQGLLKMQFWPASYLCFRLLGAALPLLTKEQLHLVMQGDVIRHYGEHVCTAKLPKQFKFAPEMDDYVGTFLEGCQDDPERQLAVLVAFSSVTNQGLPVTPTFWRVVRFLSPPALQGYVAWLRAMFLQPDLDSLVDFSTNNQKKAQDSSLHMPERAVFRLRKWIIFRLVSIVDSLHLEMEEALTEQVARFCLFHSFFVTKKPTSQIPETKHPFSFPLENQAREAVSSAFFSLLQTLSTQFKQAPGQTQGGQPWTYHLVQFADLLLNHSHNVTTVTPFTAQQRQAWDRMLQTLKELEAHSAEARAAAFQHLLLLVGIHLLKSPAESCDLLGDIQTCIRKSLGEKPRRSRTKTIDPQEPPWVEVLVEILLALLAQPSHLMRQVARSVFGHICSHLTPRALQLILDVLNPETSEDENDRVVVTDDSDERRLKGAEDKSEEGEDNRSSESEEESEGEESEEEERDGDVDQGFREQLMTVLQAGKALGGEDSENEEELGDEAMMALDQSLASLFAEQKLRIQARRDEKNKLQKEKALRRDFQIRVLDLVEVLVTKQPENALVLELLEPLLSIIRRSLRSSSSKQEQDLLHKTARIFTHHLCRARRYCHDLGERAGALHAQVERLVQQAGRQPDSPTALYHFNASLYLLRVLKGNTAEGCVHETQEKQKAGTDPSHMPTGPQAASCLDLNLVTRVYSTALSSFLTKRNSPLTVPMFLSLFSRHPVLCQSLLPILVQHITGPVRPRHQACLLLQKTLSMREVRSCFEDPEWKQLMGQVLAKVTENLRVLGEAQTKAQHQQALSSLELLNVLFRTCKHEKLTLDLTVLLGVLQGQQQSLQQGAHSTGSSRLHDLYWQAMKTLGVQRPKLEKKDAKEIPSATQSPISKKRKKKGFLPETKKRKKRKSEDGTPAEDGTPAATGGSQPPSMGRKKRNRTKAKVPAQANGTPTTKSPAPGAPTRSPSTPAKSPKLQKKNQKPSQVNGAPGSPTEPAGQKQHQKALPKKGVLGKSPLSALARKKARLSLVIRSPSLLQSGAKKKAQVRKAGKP
UniProt O14950, whole entry, looked up: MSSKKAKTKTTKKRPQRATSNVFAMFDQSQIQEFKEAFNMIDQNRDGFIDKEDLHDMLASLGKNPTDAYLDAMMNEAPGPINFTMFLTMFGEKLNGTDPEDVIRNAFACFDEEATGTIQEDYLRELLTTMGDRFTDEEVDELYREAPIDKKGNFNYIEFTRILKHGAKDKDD

[1] = compound: C/C(=N\NC(=O)C1=CC(=CC=C1)S(=O)(=O)N2CCOCC2)/C3=C(C=CC(=C3)Cl)O
Method in brief: as §1

[2] = compound: C1=CC(=C(C=C1Cl)C2=NC3=NC=CN=C3C(=N2)NC4=CC=NC=C4)F
Method in brief: as §1

[3] = compound: C1=CC(=CC=C1C2=NC3=C(N2)C=C(C=C3)C(=O)N)OC4=CC=C(C=C4)Cl
Method in brief: as §1

[4] = compound: C1=CC2=C(C=CC(=C2)/C=C\3/C(=O)NC(=NCC4=CC=CS4)S3)N=C1
Method in brief: as §1

[5] = compound: C1=CC2=NC=CN=C2C=C1/C=C/3\C(=O)NC(=O)S3
Method in brief: as §1

[6] = compound: C1=CC=C(C=C1)C2=NC(=C(N2)C3=CC=NC=C3)C4=CC(=C(C=C4)Cl)O
Method in brief: as §1

[7] = compound: C1=CC=C2C(=C1)C3=NNC4=CC=CC(=C43)C2=O
Method in brief: as §1

[8] = compound: C1CCN(C1)C(=O)NC2=CC=CC(=C2)NC3=NC=C(C(=N3)NCCC4=CN=CN4)Br
Method in brief: as §1

[9] = compound: C1CN(CCC1(CC2=CC=C(C=C2)Cl)N)C3=NC=NC4=C3C=CN4
Method in brief: as §1

Measured: log2 fold change

MYO18B isoform 3 (UniProt Q8IUG5)
inactive: erlotinib 0.198 | [1] -0.297 | [2] -0.346 | [3] -0.288 | [4] 0.283 | [5] -0.028 | [6] -0.299 | [7] -0.107 | [8] 0.205 | [9] -0.273

MRPS18C (UniProt Q9Y3D5)
inactive: erlotinib -0.073 | [1] -0.041 | [2] -0.071 | [3] 0.269 | [4] -0.019 | [5] -0.139 | [6] 0.081 | [7] 0.128 | [8] 0.114 | [9] 0.172

MUL1 (UniProt Q969V5)
inactive: erlotinib 0.015 | [1] 0.038 | [2] 0.073 | [3] -0.004 | [4] 0.026 | [5] 0.069 | [6] 0.095 | [7] 0.034 | [8] -0.025 | [9] 0.005

MTRR isoform 1 (UniProt Q9UBK8)
inactive: erlotinib 0.046 | [1] 0.11 | [2] -0.15 | [3] -0.001 | [4] 0.129 | [5] 0.003 | [6] 0.002 | [7] 0.032 | [8] 0.083 | [9] 0.014

MT-ND4 (UniProt P03905)
inactive: erlotinib 0.152 | [1] -0.077 | [2] 0.053 | [3] -0.028 | [4] -0.026 | [5] 0.044 | [6] -0.009 | [7] 0.078 | [8] -0.007 | [9] -0.036

MVK (UniProt Q03426)
inactive: erlotinib 0.027 | [1] 0.088 | [2] 0.024 | [3] -0.014 | [4] 0 | [5] 0.021 | [6] 0.01 | [7] -0.005 | [8] 0.031 | [9] 0.011

MTPN (UniProt P58546)
inactive: erlotinib -0.04 | [1] -0.012 | [2] 0.25 | [3] -0.028 | [4] 0.02 | [5] 0.088 | [6] 0.158 | [7] -0.037 | [8] -0.055 | [9] -0.104

MTM1 (UniProt Q13496)
inactive: erlotinib 0.014 | [1] 0.052 | [2] -0.014 | [3] 0.031 | [4] -0.058 | [5] 0.027 | [6] -0.01 | [7] 0.03 | [8] -0.034 | [9] 0.046

MTFR1 (UniProt Q15390)
inactive: erlotinib 0.034 | [1] -0.004 | [2] 0.029 | [3] 0.049 | [4] 0.008 | [5] 0.002 | [6] 0.024 | [7] 0.028 | [8] 0.069 | [9] 0.074

2 consecutive records already listed:
MTPN (UniProt P58546)
inactive: erlotinib -0.04 | [1] -0.012 | [2] 0.25 | [3] -0.028 | [4] 0.02 | [5] 0.088 | [6] 0.158 | [7] -0.037 | [8] -0.055 | [9] -0.104

MTM1 (UniProt Q13496)
inactive: erlotinib 0.014 | [1] 0.052 | [2] -0.014 | [3] 0.031 | [4] -0.058 | [5] 0.027 | [6] -0.01 | [7] 0.03 | [8] -0.034 | [9] 0.046

Going on with the list.

MRPS11 (UniProt P82912)
inactive: erlotinib 0.006 | [1] -0.068 | [2] 0.165 | [3] 0.12 | [4] -0.029 | [5] -0.001 | [6] 0.098 | [7] 0.186 | [8] -0.214 | [9] -0.059

MRPS22 (UniProt P82650)
inactive: erlotinib -0.052 | [1] 0.026 | [2] -0.021 | [3] 0.16 | [4] -0.082 | [5] 0 | [6] 0.026 | [7] 0.068 | [8] -0.028 | [9] -0.101

MTCH1 (UniProt Q9NZJ7)
inactive: erlotinib -0.011 | [1] 0.031 | [2] 0.016 | [3] 0.017 | [4] 0.041 | [5] -0.014 | [6] 0.056 | [7] 0.004 | [8] -0.022 | [9] 0.072

MRPL9 (UniProt Q9BYD2)
inactive: erlotinib -0.13 | [1] -0.151 | [2] -0.032 | [3] 0.021 | [4] 0.011 | [5] -0.044 | [6] 0.067 | [7] 0.116 | [8] -0.112 | [9] -0.163

MRPS18A isoform 2 (UniProt Q9NVS2)
inactive: erlotinib -0.092 | [1] -0.196 | [2] -0.252 | [3] 0.043 | [4] -0.045 | [5] 0.008 | [6] -0.043 | [7] 0.097 | [8] -0.076 | [9] -0.199

MYH10 isoform 3 (UniProt P35580)
inactive: erlotinib -0.002 | [1] 0.043 | [2] 0.089 | [3] -0.032 | [4] 0.006 | [5] 0.01 | [6] 0.034 | [7] 0.021 | [8] 0.015 | [9] -0.024

MSMO1 (UniProt Q15800)
inactive: erlotinib 0.028 | [1] 0.063 | [2] 0.087 | [3] 0 | [4] 0.033 | [5] 0.044 | [6] 0.082 | [7] -0.085 | [8] 0.035 | [9] 0.132

MTMR12 (UniProt Q9C0I1)
inactive: erlotinib 0.008 | [1] -0.031 | [2] 0.017 | [3] 0.013 | [4] 0.036 | [5] 0.034 | [6] -0.035 | [7] -0.077 | [8] -0.001 | [9] 0.021

MTMR9 (UniProt Q96QG7)
inactive: erlotinib 0.084 | [1] 0.041 | [2] 0.06 | [3] 0.001 | [4] 0.099 | [5] -0.017 | [6] 0.016 | [7] 0.077 | [8] -0.058 | [9] -0.053

MRPS25 (UniProt P82663)
inactive: erlotinib -0.069 | [1] -0.023 | [2] -0.022 | [3] 0.084 | [4] -0.048 | [5] 0 | [6] 0.083 | [7] 0.061 | [8] -0.036 | [9] -0.068

MTMR6 (UniProt Q9Y217)
inactive: erlotinib 0.033 | [1] 0.157 | [2] 0.056 | [3] -0.055 | [4] -0.003 | [5] -0.049 | [6] -0.021 | [7] -0.039 | [8] 0.011 | [9] -0.012

MSI1 (UniProt O43347)
inactive: erlotinib -0.044 | [1] -0.017 | [2] -0.048 | [3] 0.217 | [4] 0.103 | [5] 0.114 | [6] -0.01 | [7] 0.079 | [8] 0.069 | [9] -0.048

MTHFD1 (UniProt P11586)
inactive: erlotinib 0.06 | [1] 0.058 | [2] 0.074 | [3] -0.019 | [4] 0.019 | [5] -0.021 | [6] 0.05 | [7] 0.01 | [8] 0.013 | [9] 0.032

MYADM (UniProt Q96S97)
inactive: erlotinib -0.013 | [1] 0.004 | [2] -0.004 | [3] 0.033 | [4] 0.111 | [5] 0.143 | [6] 0.106 | [7] -0.079 | [8] -0.029 | [9] 0.052

MRPS15 (UniProt P82914)
inactive: erlotinib -0.061 | [1] -0.201 | [2] -0.119 | [3] 0.089 | [4] 0.069 | [5] 0.064 | [6] 0.021 | [7] 0.106 | [8] -0.045 | [9] -0.108

MYBBP1A isoform 2 (UniProt Q9BQG0)
inactive: erlotinib -0.056 | [1] 0.017 | [2] -0.446 | [3] 0.025 | [4] 0.108 | [5] 0.112 | [6] -0.169 | [7] -0.07 | [8] -0.001 | [9] -0.464

MYL12B (UniProt O14950)
inactive: erlotinib 0.016 | [1] 0.091 | [2] 0.02 | [3] 0.006 | [4] -0.072 | [5] -0.019 | [6] 0.157 | [7] 0.023 | [8] -0.045 | [9] 0.005

MRPS21 (UniProt P82921)
inactive: erlotinib 0.014 | [1] -0.04 | [2] -0.096 | [3] 0.042 | [4] -0.241 | [5] -0.138 | [6] -0.019 | [7] 0.297 | [8] -0.091 | [9] -0.07

MT-CO2 (UniProt P00403)
inactive: erlotinib -0.07 | [1] 0.043 | [2] -0.01 | [3] 0.031 | [4] -0.062 | [5] 0.099 | [6] -0.009 | [7] 0.099 | [8] 0.01 | [9] -0.042

MYCBP2 (UniProt O75592)
inactive: erlotinib 0.073 | [1] -0.241 | [2] -0.119 | [3] 0.057 | [4] 0.028 | [5] -0.154 | [6] -0.249 | [7] -0.009 | [8] 0.357 | [9] 0.201

MRPS6 (UniProt P82932)
inactive: erlotinib 0.001 | [1] 0.006 | [2] 0.006 | [3] 0.088 | [4] 0.01 | [5] 0.112 | [6] 0.128 | [7] 0.079 | [8] -0.039 | [9] -0.093
